No constants are given. Whether binding was seen depends on the method and setting. A result given as binding can be weak or reduced; the word gives no strength. Where a sequence is shown, tags or fusion partners need not be part of it.
Assays:
[1] = target: extracellular part of mouse (mus musculus) TL1A protein (mouse); test: ELISA on coated extracellular part of TL1A (2 µg/mL), dose dilution of chimeric 5G6, HRP anti-human IgG
[2] = target: extracellular part of mouse (mus musculus) TL1A protein (mouse); test: ELISA on coated extracellular part of TL1A (legend of FIG. 4)
[3] = target: extracellular part of mouse (mus musculus) TL1A protein (mouse); test: ELISA on coated extracellular part of TL1A, HRP anti-human IgG detection

Measured: binding

B1: 5G6 chimeric antibody (murine 5G6 variable domains fused to human IgG1 heavy chain constant domains and a human kappa constant domain) (antibody, V domains shown)
VH: QVQLQQPGSVLVRPGASVKVSCKASGYTFTSSWMHWAKQRPGQGLEWIGEIHPNSGGTNYNEKFKGKATLTVDTSSSTAYVDLSSLTSEDSAVYYCARGDYYGYVSWFAYWGQGTLVTVSS
VL: DIQMNQSPSSLSASLGDTITITCHASQNINVLLSWYQQKPGNIPKLLIYKASNLHTGVPSRFSGSGSGTGFTFTISSLQPEDIATYYCQQGQSYPYTFGGGTKLEIKR
notes: Human IGHG1 / kappa chimera; also called Chimera; parental 5G6
binds: all assays above

— patent US20140308271A1 (GLENMARK PHARMACEUTICALS S A, published 2014)
